In patent publication US6592885B2, “Method for making infection-resistant fabricated textile articles for biomedical applications” (priority 2001, dated 2003):
“Also recorded” adds a separate entry of the source.

What was measured:
S. aureus = test: MIC/MBC of native and heated Cipro/Oflox (heat stability); assay type: cell-based, Staphylococcus aureus; settings: heated versus native antibiotic
Method: An inoculum of S. aureus was diluted to obtain a bacterial concentration of 10^6 S. aureus/ml. […] V. Mosby, St. Louis, 1986]. Antibiotic concentrations in the assay were […].

[1] = Structural stability to heating conditions, dye bath analysis via HPLC; assay type: physicochemical; settings: heating conditions utilized in pad/heat dyeing; data not shown

O=C(O)c1cn(C2CC2)c2cc(N3CCNCC3)c(F)cc2c1=O [Cipro, Ciprofloxacin]
antimicrobial activity (MIC/MBC) after exposure to standard dye bath / pad/heat heating conditions (S. aureus): retained; also recorded: no variation in antimicrobial activity
structural stability upon dye bath analysis via HPLC [1]: no structural degradation
